Assay results from PubChem BioAssay AID588499 (NMMLSC, 2011).
About 610 (0.17%) of roughly 360,000 compounds were called active. This list was built around the results that the source calls inconclusive (neither active nor inactive); the mix of calls is not that of the screen. No stated cut-off is given here; in the data, active means inhibition above about 30%; inconclusive means no clear call, values can overlap the other calls; inactive means below that.

System: Botulinum neurotoxin type A light chain protease (Clostridium botulinum A str. ATCC 3502)
Test: blockers of BoNT/A LC substrate cleavage – biochemical, flow cytometry, MLPCN library, primary screen (AID 588499); further: plate controls were buffer without enzyme for full effect and enzyme alone for no effect
Details: multiplex microsphere protease substrate cleavage, at 10 µM, active compounds read high

SMILES | inhibition
C=CCN1C(=O)CSC1=Nc1ccc(O)cc1 | inconclusive: 3.2%
O=C1N/C(=N\N=C\c2ccc3ncccc3c2)SC1Cc1ccc(SC(F)F)cc1 (stereo not given) | inconclusive: 3.9%
COc1ccc2c(c1)C(O)C(CO)C(C(=O)O)C2 (stereo not given) | inactive: -0.4%
CCOC(=O)c1cccc(C2=CC(=O)C[C@H](c3ccc(OC)c(OC)c3)C2)c1 | inactive: -0.3%
COc1cccc(NC(=O)N2CCCC(C(=O)Nc3ccccc3OC)C2)c1 (stereo not given) | inconclusive: -2.1%
CSc1c(-c2ccccn2)c(N)nn1C(=O)C1CC1 | inconclusive: 5.7%
O=C(Nc1ccccc1)N1CCCN(c2c(Cl)cncc2Cl)CC1 | inconclusive: 0.9%
Cc1cccc(NC(=O)CSc2nnc(-c3ccccc3)n2N)c1 | inconclusive: 3.4%
COc1ccc(OC)c(/C=N/NC(=O)CSc2cc(C)nc3c(OC)cccc23)c1 | inactive: -0.3%
Cc1ccc(NNC(=O)c2c(F)cccc2Cl)cc1Cl | inconclusive: 3.6%
Cc1nn(Cc2ccccc2)c(C)c1NC(=O)c1cc(-c2ccco2)on1 | inactive: 1.6%
N=C(N)c1ccc(/C=C/c2ccc(C(=N)N)cc2O)cc1 | inconclusive: -41.9%
O=C(Nc1ccsc1C(=O)NC1CCCCC1)c1ccccc1 | inconclusive: 0.8%
CSc1nnc2c(n1)c(C)nn2-c1cccc(C)c1 | active: 68.8%
Cc1ccc(NC(=C(C#N)C#N)c2ccccc2)cc1 | inactive: 0.7%
O=C1Nc2ccccc2C1Cc1ccccn1 (stereo not given) | inconclusive: -64.2%
O=C1N(Cc2cccc(Cl)c2)C[C@@H]2C[C@@H](c3ccc4nonc4c3)N3CCC[C@@]123 | inactive: -0.4%
O/N=C\c1ccccc1Oc1ccc(F)cc1 | inactive: 0.6%
CN1C(=O)N(C)C(=O)C2(Sc3ccccc3C2=O)C1=O | inconclusive: -1.7%
O=C(c1ccc2c(c1)OCCCO2)c1cccs1 | inconclusive: -0.9%

SMILES | inhibition
Cc1cc2cc(CNC(=O)c3ccc(C)c([N+](=O)[O-])c3)ccc2[nH]1 | active: 64.8%
COC(=O)c1ccccc1NC(=O)CNCCc1ccc(OC)c(OC)c1 | inactive: 2%
O=C(NNC(=O)c1cc2cc(OC(F)(F)F)ccc2[nH]1)c1cccc(C(F)(F)F)c1 | inconclusive: 0.7%
O=C(COC(=O)C1(c2ccc(F)cc2)CCCC1)NC1CC1 | inactive: -3.2%
CCCOP(=O)(OCCC)c1nc(-c2ccccc2)oc1NCc1ccccc1 | inactive: -1.5%
O=C(C[C@H]1C(=O)N(Cc2ccccc2)C[C@@H]1Cc1ccccc1)Nc1ccc(Br)cc1 | inactive: 0.2%
O=C(NCc1ccco1)c1cc(C(=O)C2CC2)c[nH]1 | inconclusive: -2.2%
CCN(CC)S(=O)(=O)c1ccc(C(=O)NCc2ccc3c(c2)cc(C)n3C)cc1 | active: 80.8%
CC(C)(C)NS(=O)(=O)c1ccc(NS(C)(=O)=O)cc1 | inconclusive: -2.4%
O=C(CCCc1nc(-c2ccccc2)no1)NCc1cccnc1 | inconclusive: -4.8%
COc1ccc(N2C(=O)CSC23CCCCC3)cc1 | inactive: -0.8%
CCc1nc(SCC(=O)N2CCCc3ccccc32)c2oc3ccccc3c2n1 | inconclusive: -6.8%
CSc1ccc(/C=N\Nc2nncn2N)cc1 | inactive: -1%
O=C(C(=O)c1cccnc1)c1cccnc1 | inconclusive: 14.6%
Cc1noc(C(F)(F)F)c1C(=O)NNC(=O)c1cccc(C(F)(F)F)c1 | inconclusive: -11.7%
Cc1ccc(-c2nnc(N3CCN(C(=O)COc4cccc(C)c4)CC3)c3ccccc23)cc1 | inconclusive: 26.8%
CCOC(=O)C(C)C1(O)c2ccccc2-c2ncccc21 (stereo not given) | inconclusive: -3.1%
CCN(CC)S(=O)(=O)c1ccc(Oc2ccc(S(=O)(=O)N(CC)CC)cc2)cc1 | inconclusive: 32.3%
CCn1c2ccccc2c2nnc(SCC(=O)NC(CC(C)C)C(=O)OC)nc21 (stereo not given) | inconclusive: -7.2%
O=C(CCNS(=O)(=O)c1ccc2[nH]c(=O)oc2c1)Nc1ccccc1 | inactive: -0.1%

SMILES | inhibition
COc1ccc(OC)c(N=C2C(=O)Nc3ccccc32)c1 | inconclusive: 1.4%
CCCNC(=O)NC(=O)COC(=O)CNS(=O)(=O)/C=C/c1ccccc1 | inactive: 0.5%
Cc1ccc(C(=O)N(CC(=O)NC2CCCC2)Cc2cccs2)s1 | inconclusive: -12.1%
CCN1CCN(c2cc(N3CCCC3)c(F)cc2[N+](=O)[O-])CC1 | inactive: -1%
Cc1[nH]nc(SCC(=O)NC2CCCCC2)c1[N+](=O)[O-] | inactive: -0.3%
CCOC(=O)NN1C(=O)c2ccccc2NC1c1ccccn1 (stereo not given) | inactive: -0.5%
CCc1noc(C)c1C(=O)OCC(=O)Nc1ncc(Cl)cc1Cl | inactive: -3.1%
COc1cccc(/C=N/n2c(CO)nc3ccccc32)c1OC | inconclusive: 2.1%
Cc1cccc2cc(/C=C3\N=C(c4ccccc4)OC3=O)c(N3CCOCC3)nc12 | active: 124%
Cc1ccccc1NC(=O)COc1coc(CN2CCN(c3ccccc3)CC2)cc1=O | inactive: 2.9%
O=C(O)c1ccc(-c2ccc(/C=c3/sc4nc5ccccc5n4c3=O)o2)cc1Cl | active: 31.7%
O=C(NCc1ccco1)c1ccccc1-c1nc(-c2ccc(F)cc2)no1 | inconclusive: -33.6%
O=C(Nc1ccc(F)cc1)C1CCN(c2nnnn2-c2ccccc2)CC1 | inconclusive: 1.5%
Cc1cccc(NC(=O)C2CCCC2)c1 | inconclusive: -298%
COCCOC(=O)c1c(C)oc2ccc(OCc3cc(C(=O)OC)oc3C)cc12 | inconclusive: 2.4%
O=C(Cc1ccc(Cl)cc1)NNC(=S)NC(=O)c1cccs1 | inconclusive: 12.5%
COC(=O)CSc1nnc(-c2ccc(OC)c(OC)c2)o1 | inactive: 0.1%
CC1(c2nnnn2Cc2ccccc2)CCC(=O)N1Cc1cccc(C(F)(F)F)c1 (stereo not given) | inactive: 0.7%
CCc1ccc(NC(=O)N(CCN2CCOCC2)Cc2ccc3c(c2)CCCN3CC)cc1 | inactive: -0.4%
O=C1CSC(c2cccc([N+](=O)[O-])c2)N1CCc1ccccc1 (stereo not given) | inactive: -2.9%

Exported as labelled records: three of the compounds above.
O=C(C(=O)c1cccnc1)c1cccnc1
  inhibition: inconclusive: 14.6%
Cc1[nH]nc(SCC(=O)NC2CCCCC2)c1[N+](=O)[O-]
  inhibition: inactive: -0.3%
Cc1cccc(NC(=O)C2CCCC2)c1
  inhibition: inconclusive: -298%
